The values below come from patent US20080219974A1.

By UniProt entry, the sequences of proteins in these tests, tags left out. Where a name states a change or a piece, a line headed by the entry shows the natural chain unless it says otherwise.
UniProt Q10589: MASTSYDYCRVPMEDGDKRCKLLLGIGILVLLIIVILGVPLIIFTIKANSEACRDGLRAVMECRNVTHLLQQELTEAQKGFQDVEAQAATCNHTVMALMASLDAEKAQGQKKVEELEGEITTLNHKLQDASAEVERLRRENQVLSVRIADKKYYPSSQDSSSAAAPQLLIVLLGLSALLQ

Results are given in words; binding and its absence hold for the method and conditions named. Some binding calls cover weakened binding; strength is not graded here.

In experiment [1] the target is His-tagged HM1.24 antigen, residues N49-A163 of the extracellular domain (human) (UniProt Q10589).
The target in experiment [2] is Human HM1.24 on RPMI 8226 multiple myeloma cells (human) (UniProt Q10589). Kind of experiment: flow cytometry on HM1.24+ RPMI 8226 cells.

B1: HM1.24_H1L4 (antibody, human IgG1, kappa, V domains shown)
VH: QVQLVQSGAEVKKPGASVKVSCKASGYTFTPYWMQWVRQAPGQGLEWMGSIFPGDGDTRYSQSFQGQVTISADKSISTAYMELSRLRSDDTAVYYCARGLRRGGYYFDYWGQGTLVTVSS
VL: DIVMTQSPLSLPVTLGQPASISCKASQDVNTAVAWYLQKPGKSPKLLIYSASNRYTGVPDRITGSGSGTDFTLKISRVEAEDVGVYYCQQHYSTPFTFGSGTKLEIKR
For B1, the binding entry in experiment [1] and in experiment [2] was “binds” in each case.

B2: HM1.24_H2L4 (antibody, human IgG1, kappa, V domains shown)
VH: EVQLVESGGGLVKPGGSLRLSCAASGYTFTPYWMQWVRQAPGKGLEWMGSIFPGDGDTRYSQSFQGQVTISADKSISTAYMELSSLRSEDTAVYYCARGLRRGGYYFDYWGQGTLVTVSS
VL: DIVMTQSPLSLPVTLGQPASISCKASQDVNTAVAWYLQKPGKSPKLLIYSASNRYTGVPDRITGSGSGTDFTLKISRVEAEDVGVYYCQQHYSTPFTFGSGTKLEIKR
For B2, the binding entry in experiment [1] and in experiment [2] was “binds” throughout.
